Data from PubChem BioAssay AID2685 (National Center for Advancing Translational Sciences (NCATS), 2010).
The list shows a part of the results. Shown are side measurements of this screen, not its main read-out; they come without a call. The list favours compounds with an active or inconclusive main result. The note in brackets gives the kind of curve behind each potency; many fits are weak.

Assay: qHTS Assay for Lipid Storage Modulators in Drosophila S3 Cells;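 for cell number change: cells counted by Cell Tracker Red CMTPX staining in the red channel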
Conditions: BODIPY lipid droplet fluorescence, 18-24 h; for cell number change: measured here: cell count max response, cells fed with added oleic acid
How it was run: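 Laser-scanning cytometry quantifies lipid droplet accumulation (500–530 nm total intensity; droplet/cell object ratio) in oleic acid-fed (400 uM added) Drosophila S3 cells treated with a concentration series. 20 uM Triacsin C defined 100% inhibition.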

[1] = measured here: cell number channel AC50, cells fed with added oleic acid
[2] = measured here: lipid fluorescence (Fed channel) AC50, cells fed with added oleic acid

CCN1CCN(C(=O)c2ccc(OCC(=O)Nc3ccc(F)cc3)c(OC)c2)CC1
cell number change: -6.68%
AC50 [1]: 6.51 µM [falling, single point]
AC50 [2]: 5.8 µM [falling, partial curve, poor fit]

CCn1nc(NC(=O)C2CCCO2)c2cc3cccc(C)c3nc21 (centres undefined)
cell number change: 36.6%
AC50 [1]: 11.6 µM [rising, single point]

O=C1CCN(Cc2ccccc2)CCN1[C@H](CO)Cc1ccccc1
cell number change: 20.4%
AC50 [2]: 0.58 µM [falling, single point]

O=S1(=O)N=C2CCCCCN2C(c2ccc(Br)cc2)N1 (centres undefined)
cell number change: -41.3%
AC50 [1]: 0.164 µM [falling, full curve, poor fit]

O=C(Nc1ccc(F)c(Cl)c1)C1CCCN(c2cnccn2)C1 (centres undefined)
cell number change: 50.2%
AC50 [1]: 29.1 µM [rising, single point]

O=C(Cn1c(=O)oc2cc(S(=O)(=O)N3CCc4ccccc43)ccc21)NC1CCCC1
cell number change: 42.7%
AC50 [1]: 20.6 µM [rising, single point]

Cc1cc(/C=C2/NC(=O)N(c3ccccc3)C2=O)c(C)n1C(C)C
cell number change: 5.14%
AC50 [2]: 2.91 µM [rising, full curve]

O=C(c1ccccc1)c1ccc(OC(=O)N2CCOCC2)cc1
cell number change: -34.1%

CCN(c1cccc(C)c1)S(=O)(=O)c1ccc(-c2coc(C)n2)cc1
cell number change: 3.98%
AC50 [2]: 2.31 µM [rising, full curve, poor fit]

C=CCNc1oc(-c2cccc3ccccc23)nc1C#N
AC50 [2]: 0.231 µM [rising, full curve, poor fit]

O=C(N/N=C/c1ccc(N2CCOCC2)o1)c1cccc(F)c1
cell number change: -40.3%
AC50 [1]: 23.1 µM [falling, single point]
AC50 [2]: 23.1 µM [falling, single point]

CC(CN1CCOCC1)OC(=O)c1cccc(Cl)c1 (centres undefined)
cell number change: -20.1%

Cc1ccc(C)c(NC(=S)N2CCCCC2CO)c1 (centres undefined)
cell number change: 25.5%
AC50 [1]: 0.0231 µM [falling, full curve, poor fit]
AC50 [2]: 0.116 µM [falling, full curve, poor fit]

CC(=O)OC1COC(n2c(O)c(N=NC(N)=S)c3ccccc32)C(OC(C)=O)C1OC(C)=O (centres undefined)
cell number change: -22%
AC50 [2]: 6.51 µM [falling, full curve]

COc1cc(CNCc2cccnc2)ccc1OCC(=O)NC1CCCCC1
cell number change: -7.34%
AC50 [2]: 18.4 µM [falling, single point]

Cn1cc(-c2ccno2)c(C(=O)O)n1
cell number change: 48.2%
AC50 [1]: 29.1 µM [rising, single point]

Cc1cccc(C)c1NC(=O)CN1CCN(C(=O)CNC(=O)c2ccc(N3CCCC3=O)cc2)CC1
cell number change: 8.12%
AC50 [2]: 1.46 µM [rising, partial curve]

COc1ccc(NC(=O)CCS(=O)(=O)c2ccc(Br)s2)cc1
cell number change: 22.6%

COc1ccccc1C(=O)NCC(=O)N/N=C(\C)Cc1ccccc1
cell number change: 11.3%

C/C(N)=C(/C#N)C(=O)CSc1nc2ccccc2c(=O)n1-c1ccccc1C
cell number change: 21.5%
AC50 [2]: 20.6 µM [rising, single point]

CCCc1cc(=O)oc2cc(OCC(=O)Nc3ccc(S(N)(=O)=O)cc3)ccc12
cell number change: 33.2%

Cc1csc(-c2cccnc2)n1
cell number change: 8.5%
AC50 [2]: 3.26 µM [rising, single point]

Cn1c(=O)c2ccccc2n(Cc2cccc(F)c2)c1=O
cell number change: -6.87%
AC50 [2]: 20.6 µM [falling, single point]

CCC(C)n1c(-c2cccs2)nc2nc3ccccc3nc21 (centres undefined)
cell number change: 3.61%
AC50 [1]: 0.164 µM [rising, full curve, poor fit]

Cc1cc(C(C)(C)C)ccc1OCCN1CCCC1
cell number change: 4.59%

CCc1ccc2nc(N3C(=O)c4oc5ccccc5c(=O)c4C3c3ccc(OC)c(OC)c3)sc2c1 (centres undefined)
cell number change: -11.6%

COc1ccc(-c2cc(C(=O)N3CCc4ccccc4C3)no2)cc1OC
cell number change: -24.1%

Cc1ccsc1/C=C(\C#N)C(=O)NCc1ccco1
cell number change: -37.4%
AC50 [1]: 0.00731 µM [falling, full curve, poor fit]
AC50 [2]: 0.116 µM [rising, full curve]

O=C(c1ccc(F)cc1F)N1CCN(c2ncccn2)CC1
cell number change: -13.8%
AC50 [2]: 1.84 µM [falling, partial curve, poor fit]

COc1ccc(-c2csc(-c3ccccc3)n2)c(OC)c1
cell number change: -14.9%
AC50 [1]: 0.058 µM [falling, full curve, poor fit]

O=C(O)C1C2CCCCC2=C2CCCCC2C1C(=O)O (centres undefined)
cell number change: -11.9%
AC50 [2]: 0.146 µM [falling, full curve]

Cc1ccc(-c2cc(C(=O)NN=C3CCCC3)c3ccccc3n2)cc1
cell number change: 107%
AC50 [1]: 29.1 µM [rising, single point]
AC50 [2]: 29.1 µM [rising, single point]

CCNC(=S)NNC(=O)c1cc(-c2ccc(OCC)cc2)nc2ccccc12
cell number change: 9.33%
AC50 [2]: 0.82 µM [rising, full curve, poor fit]

COc1cc2c(cc1OC)CN(C(=O)CSc1nc3[nH]ncc3c(=O)n1-c1ccccc1)CC2
cell number change: 40.1%
AC50 [1]: 6.51 µM [rising, partial curve, poor fit]
AC50 [2]: 2.91 µM [rising, single point]

O=C(Nc1ccc(NC(=O)c2cccs2)cc1Cl)c1ccco1
cell number change: -0.706%

Cc1sc2ncn(CC(=O)NCCCC(=O)N(C)Cc3ccccc3)c(=O)c2c1C
cell number change: 10%
AC50 [2]: 29.1 µM [rising, single point]

Cc1ccc2c(COC(=O)c3cnc(C)cn3)cc(=O)oc2c1
cell number change: 2.07%

CSc1ccc(CSCC(=O)N2CCN(S(=O)(=O)c3ccc(C)cc3C)CC2)cc1
cell number change: -9.71%
AC50 [2]: 4.61 µM [falling, partial curve]

O=C(Nc1cccc(Br)c1)c1cc2ccccc2o1
cell number change: -33.9%
AC50 [1]: 23.1 µM [falling, single point]
AC50 [2]: 20.6 µM [falling, partial curve, poor fit]

COc1ccc(CNC(=O)c2ccc(N3CCOCC3)c([N+](=O)[O-])c2)cc1
cell number change: 26.2%
AC50 [2]: 0.00651 µM [falling, full curve, poor fit]

CCOC(=O)c1c(S(=O)(=O)NCC(=O)Nc2cccc(C)c2C)c(C)n(C)c1C
cell number change: 8.25%

Cc1cccc(N2CCN(C(=S)NCc3ccco3)CC2)c1C
cell number change: 26.6%
AC50 [2]: 14.6 µM [rising, single point]

CCCCC1CN2CCc3c([nH]c4ccccc34)C2(C)C1 (centres undefined)
cell number change: 9.39%
AC50 [2]: 23.1 µM [falling, single point]

O=C(CNS(=O)(=O)c1ccc2ccccc2c1)NCCc1ccccn1
AC50 [1]: 0.146 µM [rising, single point]
AC50 [2]: 0.13 µM [rising, single point]

CN(CCCNC(=O)Cn1c(=O)c2cccn2c2ccccc21)Cc1ccccc1
cell number change: -19.2%
AC50 [2]: 1.84 µM [rising, partial curve, poor fit]

COc1ccc(C(CC(=O)Nc2ccccn2)N2Cc3ccccc3C2=O)cc1 (centres undefined)
cell number change: 20.4%
AC50 [2]: 23.1 µM [falling, single point]

COc1c(F)c(F)c(C(=O)O)c(Nc2ccccc2C)c1F
cell number change: -23.1%

CCOC(=O)c1c(-c2ccc(C)o2)csc1NC(=O)CN1CCOCC1
AC50 [1]: 0.461 µM [rising, single point]
AC50 [2]: 1.16 µM [rising, partial curve]

O=C(NCC(=O)N(c1ccccc1)C(C(=O)NC1CCCCC1)c1ccncc1)c1ccco1 (centres undefined)
cell number change: -21.3%
AC50 [1]: 0.164 µM [falling, full curve, poor fit]

Nc1ccccc1SC1CC(=O)N(c2ccc3c(c2)OCO3)C1=O (centres undefined)
cell number change: 19.9%
AC50 [2]: 1.16 µM [rising, full curve]

CC(C)C1C(C#N)=C(N)Oc2n[nH]c(-c3ccc4ccccc4c3)c21 (centres undefined)
cell number change: -58.6%
AC50 [2]: 6.51 µM [rising, partial curve]

CC(/C=C1\SC(=S)N(NS(=O)(=O)c2ccccc2)C1=O)=C\c1ccccc1
cell number change: -8.43%

O=C(CN1CCN(S(=O)(=O)c2cc(Cl)ccc2Cl)CC1)c1ccc(O)c(O)c1
cell number change: -37.5%
AC50 [1]: 13 µM [falling, single point]
AC50 [2]: 29.1 µM [falling, single point]

COc1ccc(C(CNC(=O)c2cc(S(=O)(=O)N3CCCC3)ccc2Cl)N2CCCC2)cc1 (centres undefined)
cell number change: 26.7%
AC50 [2]: 29.1 µM [rising, single point]

CCC(=O)c1ccc(OCC(O)CNC2CCCC2)cc1 (centres undefined)
cell number change: 5.57%

Cc1cccc(C(=O)NCCCNC(=O)c2cccnc2)c1
cell number change: 19.6%

CCN(CC(=O)Nc1c(F)cccc1F)C(=O)C1CCC1
cell number change: -12.9%

CCc1cc(-c2n[nH]c(=S)n2-c2ccccc2C)cs1
cell number change: -21%

COc1cc(OC)c(OC)cc1/C=C(\C#N)C(=O)NCc1cccs1
cell number change: -11.2%
AC50 [2]: 0.00461 µM [falling, full curve, poor fit]

Cc1cccc(Nc2nnc(SCC(=O)NC(=O)CN3CCCC3=O)s2)c1
cell number change: -22.9%

COc1ccc(/C=C/c2nc(S(=O)(=O)c3ccccc3)c(N(C)C)o2)cc1OC
cell number change: -10.5%
AC50 [1]: 0.731 µM [rising, full curve]

O=C(NCCCn1ccnc1)c1cc(Cl)cc(Cl)c1
cell number change: -10.9%
AC50 [1]: 0.058 µM [falling, full curve, poor fit]

O=C(NC1CCCCC1)C1CCN(c2nccs2)CC1
cell number change: 14%
AC50 [2]: 2.59 µM [rising, full curve, poor fit]

COC(=O)c1ccc2c(c1)C(C)(C)C(/C=C/c1ccccc1O)=[N+]2C
cell number change: -1.89%
AC50 [1]: 5.8 µM [falling, single point]
AC50 [2]: 0.58 µM [falling, single point]

O=C(Cc1ccccc1)NCC(=O)Nc1cccc(Cl)c1
cell number change: 12.4%
